Results are given in words; binding and its absence hold for the method and conditions named. Some results given as binding are weak or reduced against the parent protein; the word gives no strength.
Molecular target: FBXW7 (F-box/WD repeat-containing protein 7) (Bos taurus (Bovine)) (UniProt F1MNN4)
Assay: peptides immobilised on membranes, screened for FBXW7 binding

Amino acid sequences for entries named in this document (tags omitted). A change or cut given only in a name is not applied to a line headed by its entry.
UniProt F1MNN4: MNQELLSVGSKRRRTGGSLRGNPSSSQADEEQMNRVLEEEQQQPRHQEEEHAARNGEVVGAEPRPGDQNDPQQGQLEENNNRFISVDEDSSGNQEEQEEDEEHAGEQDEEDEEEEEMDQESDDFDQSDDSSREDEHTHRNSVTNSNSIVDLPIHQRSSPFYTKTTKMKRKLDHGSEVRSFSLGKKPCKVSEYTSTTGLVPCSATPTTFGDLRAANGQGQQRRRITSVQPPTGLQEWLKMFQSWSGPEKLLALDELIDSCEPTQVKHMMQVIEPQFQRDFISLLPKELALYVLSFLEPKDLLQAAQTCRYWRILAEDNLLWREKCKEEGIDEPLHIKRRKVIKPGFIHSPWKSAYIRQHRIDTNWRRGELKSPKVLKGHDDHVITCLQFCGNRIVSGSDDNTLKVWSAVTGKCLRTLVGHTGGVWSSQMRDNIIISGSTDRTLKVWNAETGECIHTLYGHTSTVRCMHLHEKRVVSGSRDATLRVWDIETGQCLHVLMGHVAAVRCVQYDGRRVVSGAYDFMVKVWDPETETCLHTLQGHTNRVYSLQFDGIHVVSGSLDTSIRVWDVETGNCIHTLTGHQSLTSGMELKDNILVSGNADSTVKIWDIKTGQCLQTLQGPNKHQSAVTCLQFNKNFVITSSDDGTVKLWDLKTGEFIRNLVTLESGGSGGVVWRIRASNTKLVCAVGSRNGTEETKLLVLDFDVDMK

Row | binding | Binder
1 | binds | GPEVPPTPPGSHSAFTSSFSFIRL (phosphothreonine at Thr198 (position 7 of the peptide)) [24-mer DISC1 peptide … phosphorylated at Thr198]
2 | binds | GPEVPPTPPGSHSAFTSSFSFIRL (phosphothreonine at Thr198 (position 7); phosphoserine at Ser202 (position 11)) [24-mer DISC1 peptide … phosphorylated at Thr198 and Ser202]
3 | binds | GPEVPPTPPGSHSAFTSSFSFIRL (phosphoserine at Ser202 (position 11 of the peptide)) [24-mer DISC1 peptide … phosphorylated at Ser202]
4 | binds | GPEVPPTPPGSHSAFTSSFSFIRL [24-mer DISC1 peptide …]

Molecular target: FBXW7 (F-box/WD repeat-containing protein 7) (Bos taurus (Bovine)) (UniProt F1MNN4)
Assay: peptide binding screen against FBXW7 (substituted 7-mer panel)

Row | binding | Binder
5 | binds | PEPPGDH (6: N-methyl-Asp) [Peptide 64: P-E-P-P-G-mD-H]
6 | binds | GDPPGEH (2: N-methyl-Asp; 6: N-methyl-Glu) [Peptide 142: G-mD-P-P-G-mE-H]
7 | binds | GEPPGEH (2: N-methyl-Glu; 6: N-methyl-Glu) [Peptide 139: G-mE-P-P-G-mE-H]

Molecular target: FBXW7 (F-box/WD repeat-containing protein 7) (Bos taurus (Bovine)) (UniProt F1MNN4)
Assay: peptide binding screen against FBXW7 (truncation/substitution panels)

Row | Binder | binding
8 | PPGEH (4: N-methyl-Glu) [A189 P-P-G-mE-H] | binds
9 | LDPPGEH (2: N-methyl-Asp; 6: N-methyl-Glu) [A58 L-mD-P-P-G-mE-H] | binds
10 | PAPPGEH (6: N-methyl-Glu) [A82 P-A-P-P-G-mE-H] | binds
11 | GAPPGEH (6: N-methyl-Glu) [A22 G-A-P-P-G-mE-H] | binds

Next, values leading:

Row | binding | Binder
12 | binds | GDPPGE (2: N-methyl-Asp; 6: N-methyl-Glu) [A45 G-mD-P-P-G-mE]
13 | binds | PAPPGDH (6: N-methyl-Asp) [A102 P-A-P-P-G-mD-H]
14 | binds | GDPPQEH (2: N-methyl-Asp; 6: N-methyl-Glu) [A52 G-mD-P-P-Q-mE-H]
15 | binds | PEPPQDH (6: N-methyl-Asp) [A151 P-E-P-P-Q-mD-H]
16 | binds | PEPPGD (6: N-methyl-Asp) [A144 P-E-P-P-G-mD]

From US9981005
